Results on 23 sequences are retold here after PMC7819943, “Rice protein-binding microarrays: a tool to detect cis-acting elements near promoter regions in rice”.

Sequences of proteins named here, by UniProt entry; tags and fusion partners are left off.
UniProt Q0JBA9, entry or part of it: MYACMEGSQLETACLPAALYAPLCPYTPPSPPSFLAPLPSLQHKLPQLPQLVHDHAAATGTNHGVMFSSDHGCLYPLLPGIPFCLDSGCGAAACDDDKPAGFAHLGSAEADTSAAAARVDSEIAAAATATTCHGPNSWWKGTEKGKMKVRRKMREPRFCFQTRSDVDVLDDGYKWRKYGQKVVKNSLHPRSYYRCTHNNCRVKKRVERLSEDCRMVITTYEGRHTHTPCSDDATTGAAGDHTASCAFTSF

This is one part of the list.

The target in this assay is OsWRKY34 (Oryza sativa, UniProt Q0JBA9 1-250). Description: protein-binding microarray (RPBM); PBS, 2% BSA, 51.3 ng/ul salmon testes DNA, 50 uM zinc acetate, 200 nM TF, 25 C, 1 h; high values mean tight binding. The settings on record: protein: recombinant; tags: N-terminal polyhistidine and DsRed monomer fusion (pET32a); label: CyDye5-dUTP incorporated in the synthesized complementary strand; 3' TTTTT single-stranded linker to array surface; dsDNA, one strand shown. The essentials:
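A custom Agilent array was converted to double-stranded form by primer extension with Cy5-dUTP and blocked with 2% BSA. Protein at 200 nM in PBS with 2% BSA, salmon testes DNA and 50 µM zinc acetate was applied for 1 h at 25 °C, followed by washing. The proteins were polyhistidine–DsRed N-terminal fusions of transcription factors, expressed in E. coli BL21-CodonPlus and Ni–NTA-purified. The binding signal is per-feature fluorescence intensity (arbitrary units) from an Axon 4000B scanner.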
For “AGTTTCCTGTCCGTTGCTTTTCCAAAAGTTCAAAGATCAACGGAGTCACCTAGTGCAG”, the binding signal is 9210 fluorescence intensity (a.u.).

In the case of “ACAAATTCCGTCCCTGGCCCAAAAGCGGGCTGCTGTTTCCCGGAGTCACCTAGTGCAG”, the binding signal was 8660 fluorescence intensity (a.u.).

As to “TGTTGCTTAATTTCAGTCTCAGGCTTGCTTCTACTGTTTTCGGAGTCACCTAGTGCAG”, the binding signal is 8790 fluorescence intensity (a.u.).

Consider “ACAGTGCTCCTTCTTCTACCTCTGGACAGAGCCGAGCTCTCGGAGTCACCTAGTGCAG”, for which the binding signal was 9320 fluorescence intensity (a.u.).

As to “ATCCAACTTATTGTAGAACCAACACCGTTCTATCATCCACCGGAGTCACCTAGTGCAG”, the binding signal is 8970 fluorescence intensity (a.u.).

“GTTACACGTGCCATTATTCATGCCCTTATTATATAAACACCGGAGTCACCTAGTGCAG”: the binding signal is 8300 fluorescence intensity (a.u.).

Consider “CACTATGGCCCGCACGAATTGGCTAACCTTCCAGGCCCAACGGAGTCACCTAGTGCAG”, for which the binding signal is 9640 fluorescence intensity (a.u.).

For “CCTGCCTCGCCATCACCGGCCGCCGATCGAGTACGTGCGCCGGAGTCACCTAGTGCAG”, the binding signal was 8610 fluorescence intensity (a.u.).

For “GTTTTCCTTTTTCTTTCTTTTCTTTTATTTTTTTTTCTAACGGAGTCACCTAGTGCAG”, the binding signal was 9860 fluorescence intensity (a.u.).

As to “AGTTGCTAGGCCCAGATCATCCAATATATTATATATATAGCGGAGTCACCTAGTGCAG”, the binding signal was 8330 fluorescence intensity (a.u.).

For “CTATGGTAACCTTTTGCGTGATTGTCCTGTAAATATGTCTCGGAGTCACCTAGTGCAG”, the binding signal was 8510 fluorescence intensity (a.u.).

As to “CAATTTATCATCCACTTTGCTTTCTTTATAATACGATGTTCGGAGTCACCTAGTGCAG”, the binding signal was 8120 fluorescence intensity (a.u.).

Regarding “CACGTGCCTACTACCGCCCAACCTCTGACACGATCGACGACGGAGTCACCTAGTGCAG”, the binding signal was 8380 fluorescence intensity (a.u.).

On to “CAATGGTCTATATCTACTACTCCTTTGTGTACATCCTTAACGGAGTCACCTAGTGCAG”, for which the binding signal is 8320 fluorescence intensity (a.u.).

Turning to “AAGCCCGGACCTCGTGAACCAACTCCACCCATGGACTACTCGGAGTCACCTAGTGCAG”, the binding signal is 8940 fluorescence intensity (a.u.).

Turning to “CGGCGGTGGGCGGGGCTTCTTGTAGGCTGGGCTGTACCAGCGGAGTCACCTAGTGCAG”, the binding signal was 10200 fluorescence intensity (a.u.).

As for “TTTACCAACCAGATGTTCAGCTCTTCGGTTTGGACCATTTCGGAGTCACCTAGTGCAG”, the binding signal is 10100 fluorescence intensity (a.u.).

Turning to “CTGGCCGCACTTCAGCCGCTCGCCTTTTGCTTGGGCCGCGCGGAGTCACCTAGTGCAG”, the binding signal is 8920 fluorescence intensity (a.u.).

For “CAACTATTGTATGAATTGACTATTACATTGGCTATAGATGCGGAGTCACCTAGTGCAG”, the binding signal is 9810 fluorescence intensity (a.u.).

For the sequence “CCACGGTTTCTTTGTCCTTGTTTCTTGTTGATTGCAGGATCGGAGTCACCTAGTGCAG”, the binding signal is 11900 fluorescence intensity (a.u.).

“GAGCCGTCCCCAAGAATCTACTTACTTGCGATTATCCAGGCGGAGTCACCTAGTGCAG”: the binding signal was 8240 fluorescence intensity (a.u.).

With “ATACCCGATCTCATTATTATGAACCAGTTATGTAATAACACGGAGTCACCTAGTGCAG”, the binding signal was 8020 fluorescence intensity (a.u.).

“TGTTTCATAGTACTGTAGCGAATAATCCTGTCCGTTCGCTCGGAGTCACCTAGTGCAG”: the binding signal was 8080 fluorescence intensity (a.u.).
